These are yes or no findings as the source states them, for the method shown. Binding calls can cover weak binding; strength is not graded here. Tags and fused reporters may be left off the sequences shown.
Biological target: GST-Sim3 (S. pombe) (UniProt Q9USQ4)
Assay: pull-down; GST-Sim3 with recombinant histone octamers, H3-H4 tetramers or soluble histones; Figure S7; methods in the Supplemental Data; both purified

Substance	binding
H3-H4 tetramers (complex)	binds
recombinant H3-H4-H2A-H2B octamers (complex)	binds
